Results as given in the supplement of paper PMC5949888.
Most values lie at the floor of the assay. Slopes are relative: functional sequences can read slightly below zero.

Test system: Saccharomyces cerevisiae PS128 hsf1 delta, HSF1(1-493) fusion
Assay: growth estimate (transactivation domain function in HSF1 fusion, heat-shock survival) (a.u. (slope of normalised read count over time)); higher = stronger growth at 37°C, i.e. more transactivation activity
Details: library: random library

Substance | growth estimate
YPGAVICLRPAKVSIRLEEL | < -0.25
YPGWVIKPYMS | < -0.25
YPIIYR | < -0.25
YPLAKLFGFWHVVVHQALIR | < -0.25
YPLTVW | < -0.25
YPNAFRVISSPVTKWTVYVG | < -0.25
YPPAEEE | < -0.25
YPPSLGTWRIGCPLLPNLTS | < -0.25
YPPTALPRLCA | < -0.25
YPQW | -0.237
YPSICRSSLKSALASRMGTV | < -0.25
YPSRKLLVETKRLQISTNRL | -0.243
YPTCNQPSLPQTPIGEVGWA | < -0.25
YPWQAILNILCIGCILWPSN | < -0.25
YQGRIGAPAVIRHR | < -0.25
YQHRGSTCTMPQGGRHRR | < -0.25
YQIE | < -0.25
YQIIAPLGPVMTRVSSE | < -0.25
YQILWSTTSP | < -0.25
YQKAFNLYGVWTLSRGGLHP | < -0.25
YQTA | < -0.25
YRAAWRVLVVADWMPNPAAA | < -0.25

Substance | growth estimate
YRAI | < -0.25
YRAVGCRSGSHFVSSLTLDG | < -0.25
YRCHRPMS | < -0.25
YRCRSCRVKGEFP | < -0.25
YRDHVERGRRGAYTLYTQLT | < -0.25
YRETAGHSPELGGLQPSLRW | < -0.25
YRETPGNYNLPAQGHLTLRS | < -0.25
YRGECILGHYAVNCRASGQE | < -0.25
YRGHVFAPVSSQCELDAGTD | < -0.25
YRGRSYAVLNYWWYDRVARR | < -0.25
YRGYRR | < -0.25
YRHPSPPCRYQGKCPVCP | -0.214
YRIGLHDDRLLSLIGPHSAL | < -0.25
YRINSAVRSRKAQMVPPV | < -0.25
YRKEHLEANRTSDICVLLVM | < -0.25
YRKLCTDKFLAIWETSTSAV | < -0.25
YRKRGILRVEDC | < -0.25
YRLPIHY | < -0.25
YRMHLSLVSEKVEMVSLGRA | < -0.25
YRPACRDYAKRLRRLIRHKF | < -0.25
YRQSRGSVASGT | < -0.25
YRQVVQ | < -0.25

Single entries from the list:
YRETPGNYNLPAQGHLTLRS | growth estimate: < -0.25
YRPACRDYAKRLRRLIRHKF | growth estimate: < -0.25

Continued:

Substance | growth estimate
YRREQRGVLGGHGVAFASRS | < -0.25
YRRGVVPNRSQFRSVYCLAR | -0.241
YRRSDICPYSRAQLGCA | < -0.25
YRSCLQQILPSSYLSARTTV | < -0.25
YRSLESPVRDSRRQSIIRVQ | < -0.25
YRTALSRRISETLSRRLSFS | < -0.25
YRVFSVAVTYATESWYILHR | < -0.25
YRVGALVATRQDTPPNRLPR | < -0.25
YRVLHICSGLIFDGLILDSG | < -0.25
YRVPA | < -0.25
YRVRLPHCSVVSNSDSLIRP | < -0.25
YRVTSSRLGAGFGE | < -0.25
YRYEVIDPL | < -0.25
YSAILEMCILAGSHPRGRPP | < -0.25
YSAYNTPSVDGVVDPTSIAV | < -0.25
YSDSDAEVEVPPALI | < -0.25
YSLLPITYQIAQSWISDLHP | < -0.25
YSLNN | < -0.25
YSLSLPDDFSEPVHDRLLPE | < -0.25
YSLVRFRSIKKTCRFDGKSE | < -0.25
YSPVAVAPADVWVA | < -0.25
YSQDDWV | < -0.25

Substance | growth estimate
YSRIQA | < -0.25
YSRLFTKSHNVQDS | < -0.25
YSRPTSDLC | < -0.25
YSSAAHNYRLGFVVLAGRHD | < -0.25
YSSEKEEG | < -0.25
YSSMKEFDCSTNARASSLWL | < -0.25
YSSRM | < -0.25
YSTHRRSR | -0.0135
YSTNLIGLHV | < -0.25
YSVFVIIGSQSRWHNLSNCS | < -0.25
YSVGKQGRWVVARMGVNNGT | < -0.25
YSVLGNEFWVTLLNPALASH | < -0.25
YSYGQIHDERGARLRE | < -0.25
YTAAEPRLEAVSVIARETCS | < -0.25
YTAPNSTGISSGRGFRSGGE | -0.239
YTCFLAYAVGTVDSRPGRRN | < -0.25
YTDFGRWCTEGAGAALHAEC | < -0.25
YTDVAVI | < -0.25
YTEAQPPTNLIPLSLRPGKP | < -0.25
YTFIRTTYCTFGFV | < -0.25
YTFPRRSPAVNQKGT | < -0.25
YTGASCDDEVTVTGYGHFQK | < -0.25

Part of the list above, in markdown:

| Substance | growth estimate |
| --- | --- |
| YSRLFTKSHNVQDS | < -0.25 |
| YSSRM | < -0.25 |

Carrying on.

Substance | growth estimate
YTHWSRVNAG | < -0.25
YTIDSFYFNHSDAWIDILFT | 0.0656
YTKPPQLFLSELMPVGRELL | < -0.25
YTKSPGGSSLWGTRSRRTWP | < -0.25
YTNKLDTSRCFRLSGIL | < -0.25
YTNSARILLSIR | < -0.25
YTPRGNRRSV | < -0.25
YTQSITYGWSWGNWHFLVG | < -0.25
YTSEFPNPSH | < -0.25
YVCSPGSWDSIPAWDLSVAR | < -0.25
YVGKFSEYRVPVSLGFLKTS | < -0.25
YVGSKCICRCVAIRRAELAV | < -0.25
YVHWASLYGD | 0.0839
YVKQTLGISCLCGNWVLLKE | < -0.25
YVL | -0.245
YVLLVSFRRRR | < -0.25
YVLRRHSTISERPVRSVGSL | < -0.25
YVME | < -0.25
YVNHYVIY | < -0.25
YVQMTIDWGCSIVAFAPGAT | < -0.25
YVRLL | < -0.25
YVRTGF | < -0.25

Substance | growth estimate
YVRTVHFGRFQATFIILLH | < -0.25
YVRWSEKLTPGAGDTRVAGM | < -0.25
YVSREGFDLHAGTISLWGGY | < -0.25
YVVASTFDRETGTDQSQRIL | < -0.25
YVVAYVREIPLPHCKKAGSA | < -0.25
YWELLAVRGKGSQSWAYVLP | < -0.25
YWGSSPLIH | < -0.25
YWINGTVRPQPGTKRRYLTR | < -0.25
YWMLQQAFLIRMVCISAVQV | < -0.25
YWPVARMGSSYSVG | < -0.25
YWSGGSVGCKLWFSRLNPNP | < -0.25
YYAPKVGRWVISSMCVRGNQ | < -0.25
YYATEW | < -0.25
YYCVAR | < -0.25
YYDSVPHLGSGTRS | < -0.25
YYGSEGLGWGLEERISFIVA | < -0.25
YYM | < -0.25
YYPESLEC | < -0.25
YYPLGLRLEDACSTGNTSQV | < -0.25
YYRDLRPRCGPRLINSVALP | < -0.25
YYVKGCRRDSLKCPLEDRND | < -0.25
